Where a chain is given by its changes, count along the chain named. Read-outs that look alike come from different tables or passages of the source. Results are given in words; binding and its absence hold for the method and conditions named. Binding seen in cells or lysates may run through a third protein. Some results given as binding are weak or reduced against the parent protein; the word gives no strength. For some assays here: Sequences can lack the tags named with a protein.

What all share (assay): co-IP
For test [1], the target named is T1, Myc-tagged full-length Plin1 (F-Plin1) (UniProt Q8CGN5).
T1 sequence: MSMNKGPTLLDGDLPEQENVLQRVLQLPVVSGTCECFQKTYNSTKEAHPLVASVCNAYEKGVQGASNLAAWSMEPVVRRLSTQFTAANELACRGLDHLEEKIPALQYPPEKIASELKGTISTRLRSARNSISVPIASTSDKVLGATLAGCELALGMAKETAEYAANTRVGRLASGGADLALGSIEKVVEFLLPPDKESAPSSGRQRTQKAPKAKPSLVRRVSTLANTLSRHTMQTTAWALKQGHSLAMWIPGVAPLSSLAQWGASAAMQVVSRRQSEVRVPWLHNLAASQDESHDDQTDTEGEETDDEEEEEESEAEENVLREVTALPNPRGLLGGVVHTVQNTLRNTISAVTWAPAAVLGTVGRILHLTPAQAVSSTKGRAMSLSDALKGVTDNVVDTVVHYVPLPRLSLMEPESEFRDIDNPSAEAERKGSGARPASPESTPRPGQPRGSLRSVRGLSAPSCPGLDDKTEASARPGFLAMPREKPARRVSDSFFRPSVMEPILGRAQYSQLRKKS

Test [2] has as its target T2, Plin1 transfected into HEK293 cells (UniProt Q8CGN5).
T2 sequence: T1 sequence

Test [3] deals with T3, Plin1SD (Plin1 S81, S222, S276 mutated to aspartate) (UniProt Q8CGN5).
T3 sequence: T1 sequence with S81D, S222D, S276D

The target of test [4] is T4, endogenous Perilipin 1 (Plin1) (mouse (endogenous in WAT and 3T3-L1 adipocytes)) (UniProt Q8CGN5).
T4 sequence: T1 sequence

Test [5] addresses T4, endogenous Perilipin 1 (Plin1) (mouse (endogenous in WAT and 3T3-L1 adipocytes)). This is another data set of the same source.

B1: HSL transfected into HEK293 / 293FT cells (enzyme, UniProt P54310 1-759)
chain: MDLRTMTQSLVTLAEDNMAFFSSQGPGETARRLSNVFAGVREQALGLEPTLGQLLGVAHHFDLDTETPANGYRSLVHTARCCLAHLLHKSRYVASNRKSIFFRASHNLAELEAYLAALTQLRAMAYYAQRLLTINRPGVLFFEGDEGLTADFLQEYVTLHKGCFYGRCLGFQFTPAIRPFLQTLSIGLVSFGEHYKRNETGLSVTASSLFTGGRFAIDPELRGAEFERIIQNLDVHFWKAFWNITEIEVLSSLANMASTTVRVSRLLSLPPEAFEMPLTSDPRLTVTISPPLAHTGPAPVLARLISYDLREGQDSKVLNSLAKSEGPRLELRPRPHQAPRSRALVVHIHGGGFVAQTSKSHEPYLKNWAQELGVPIFSIDYSLAPEAPFPRALEECFFAYCWAVKHCDLLGSTGERICLAGDSAGGNLCITVSLRAAAYGVRVPDGIMAAYPVTTLQSSASPSRLLSLMDPLLPLSVLSKCVSAYSGTEAEDHFDSDQKALGVMGLVQRDTSLFLRDLRLGASSWLNSFLELSGRKPQKTTSPTAESVRPTESMRRSVSEAALAQPEGLLGTDTLKKLTIKDLSNSEPSDSPEMSQSMETLGPSTPSDVNFFLRPGNSQEEAEAKDEVRPMDGVPRVRAAFPEGFHPRRSSQGVLHMPLYTSPIVKNPFMSPLLAPDSMLKTLPPVHLVACALDPMLDDSVMFARRLRDLGQPVTLKVVEDLPHGFLSLAALCRETRQATEFCVQRIRLILTPPAAPLN
For B1, the binding entry in test [1], in test [2] and in test [3] was “binds” in each case.

B2: endogenous hormone-sensitive lipase (HSL) (enzyme, UniProt P54310 1-759)
chain: B1 chain
Consider B2, for which the binding entry in test [4] and in test [5] was “binds” in each case.

These data come from doi:10.1101/2022.11.10.516022.
